± gives the standard deviation of the averaged measurements. The list shows a part of the results, in another mix than the full data.
Compound: Nc1ncnc2c1ncn2[C@@H]1O[C@H](COP(=O)(O)OP(=O)(O)NP(=O)(O)O)[C@@H](O)[C@H]1O [adenylyl imidodiphosphate]
Experiment: NP40-soluble protein abundance relative to vehicle (solubility fold change) (ratio); higher = more soluble protein in presence of AMP-PNP
Summary of the method: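 Jurkat crude lysate (Dounce-homogenised) was treated with eight concentrations from 0.1 to 10 mM for 10 min at room temperature, then 3 min at 37 °C. It was solubilised with 0.8% NP40 and benzonase (60 min, 4 °C) and ultracentrifuged, and the supernatant was TMT-labelled for LC-MS/MS. Intensities were vsn-normalised, and the value is the fold change against the NP40-processed vehicle per replicate, from three independent experiments.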

The chains behind the UniProt entries cited, without tags or fusion partners. Where a name states a change or a piece, a line headed by the entry shows the natural chain unless it says otherwise.
UniProt O95271: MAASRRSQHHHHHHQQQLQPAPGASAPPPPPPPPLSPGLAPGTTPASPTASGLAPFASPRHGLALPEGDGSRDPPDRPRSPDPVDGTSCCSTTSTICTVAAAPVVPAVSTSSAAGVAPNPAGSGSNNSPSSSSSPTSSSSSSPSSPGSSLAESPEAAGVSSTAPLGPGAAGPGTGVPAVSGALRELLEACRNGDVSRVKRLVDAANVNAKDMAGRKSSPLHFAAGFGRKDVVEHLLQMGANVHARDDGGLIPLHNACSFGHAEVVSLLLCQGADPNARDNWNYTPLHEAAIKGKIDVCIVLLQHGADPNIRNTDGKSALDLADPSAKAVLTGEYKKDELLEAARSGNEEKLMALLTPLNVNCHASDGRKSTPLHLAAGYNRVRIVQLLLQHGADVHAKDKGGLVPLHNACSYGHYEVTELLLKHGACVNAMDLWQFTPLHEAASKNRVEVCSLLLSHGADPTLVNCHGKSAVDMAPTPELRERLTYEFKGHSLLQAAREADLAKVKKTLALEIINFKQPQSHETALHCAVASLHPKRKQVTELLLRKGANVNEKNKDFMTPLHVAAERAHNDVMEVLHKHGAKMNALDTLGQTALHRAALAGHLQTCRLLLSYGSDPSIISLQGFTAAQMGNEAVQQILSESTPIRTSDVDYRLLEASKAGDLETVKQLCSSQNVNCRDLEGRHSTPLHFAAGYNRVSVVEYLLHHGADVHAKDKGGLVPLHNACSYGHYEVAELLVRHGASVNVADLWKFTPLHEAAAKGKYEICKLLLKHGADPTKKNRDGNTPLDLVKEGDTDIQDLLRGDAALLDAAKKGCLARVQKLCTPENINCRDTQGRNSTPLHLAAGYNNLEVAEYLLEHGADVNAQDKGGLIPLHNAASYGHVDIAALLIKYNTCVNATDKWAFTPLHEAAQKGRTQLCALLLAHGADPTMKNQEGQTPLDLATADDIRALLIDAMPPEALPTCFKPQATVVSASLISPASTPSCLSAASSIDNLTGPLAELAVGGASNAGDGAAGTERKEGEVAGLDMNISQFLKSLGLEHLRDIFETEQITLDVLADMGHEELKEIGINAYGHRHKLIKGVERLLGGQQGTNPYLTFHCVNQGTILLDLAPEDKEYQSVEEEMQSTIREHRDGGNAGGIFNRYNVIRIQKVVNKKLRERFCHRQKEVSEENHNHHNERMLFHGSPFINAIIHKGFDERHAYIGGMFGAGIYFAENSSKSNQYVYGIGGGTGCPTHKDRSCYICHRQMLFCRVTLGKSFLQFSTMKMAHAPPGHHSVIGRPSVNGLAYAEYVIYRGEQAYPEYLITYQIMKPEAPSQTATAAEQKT
UniProt Q8TAG9: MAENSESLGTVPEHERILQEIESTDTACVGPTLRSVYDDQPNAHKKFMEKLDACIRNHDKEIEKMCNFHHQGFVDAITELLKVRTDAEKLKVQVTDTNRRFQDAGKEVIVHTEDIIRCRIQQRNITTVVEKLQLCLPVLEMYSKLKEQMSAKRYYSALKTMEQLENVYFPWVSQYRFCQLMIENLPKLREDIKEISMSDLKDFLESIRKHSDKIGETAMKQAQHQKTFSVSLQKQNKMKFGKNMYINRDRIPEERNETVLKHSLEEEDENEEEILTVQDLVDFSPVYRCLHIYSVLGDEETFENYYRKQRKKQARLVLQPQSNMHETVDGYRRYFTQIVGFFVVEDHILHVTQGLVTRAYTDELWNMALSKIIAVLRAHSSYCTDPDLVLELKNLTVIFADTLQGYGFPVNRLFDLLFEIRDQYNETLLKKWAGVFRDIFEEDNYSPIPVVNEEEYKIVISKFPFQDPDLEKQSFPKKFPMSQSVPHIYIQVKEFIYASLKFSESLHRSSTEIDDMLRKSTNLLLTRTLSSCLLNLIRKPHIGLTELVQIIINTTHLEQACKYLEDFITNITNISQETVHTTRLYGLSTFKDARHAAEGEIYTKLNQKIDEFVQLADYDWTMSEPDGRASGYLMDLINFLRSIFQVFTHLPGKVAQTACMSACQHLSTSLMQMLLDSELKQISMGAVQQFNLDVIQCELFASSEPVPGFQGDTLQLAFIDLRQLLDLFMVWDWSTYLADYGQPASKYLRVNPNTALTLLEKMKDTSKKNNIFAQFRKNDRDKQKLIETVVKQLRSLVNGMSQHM
UniProt Q9GZN1, whole entry: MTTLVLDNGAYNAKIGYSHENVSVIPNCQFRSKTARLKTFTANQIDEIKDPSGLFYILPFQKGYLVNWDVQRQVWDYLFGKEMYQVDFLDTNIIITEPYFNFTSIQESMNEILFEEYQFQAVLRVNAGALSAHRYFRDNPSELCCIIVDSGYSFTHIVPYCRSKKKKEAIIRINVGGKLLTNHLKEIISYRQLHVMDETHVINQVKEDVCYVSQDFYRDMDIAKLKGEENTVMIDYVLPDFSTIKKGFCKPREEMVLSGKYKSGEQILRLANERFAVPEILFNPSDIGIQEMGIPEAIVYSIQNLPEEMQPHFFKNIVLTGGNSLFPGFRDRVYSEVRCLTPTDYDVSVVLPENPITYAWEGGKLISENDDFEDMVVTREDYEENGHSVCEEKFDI
UniProt Q53GL7: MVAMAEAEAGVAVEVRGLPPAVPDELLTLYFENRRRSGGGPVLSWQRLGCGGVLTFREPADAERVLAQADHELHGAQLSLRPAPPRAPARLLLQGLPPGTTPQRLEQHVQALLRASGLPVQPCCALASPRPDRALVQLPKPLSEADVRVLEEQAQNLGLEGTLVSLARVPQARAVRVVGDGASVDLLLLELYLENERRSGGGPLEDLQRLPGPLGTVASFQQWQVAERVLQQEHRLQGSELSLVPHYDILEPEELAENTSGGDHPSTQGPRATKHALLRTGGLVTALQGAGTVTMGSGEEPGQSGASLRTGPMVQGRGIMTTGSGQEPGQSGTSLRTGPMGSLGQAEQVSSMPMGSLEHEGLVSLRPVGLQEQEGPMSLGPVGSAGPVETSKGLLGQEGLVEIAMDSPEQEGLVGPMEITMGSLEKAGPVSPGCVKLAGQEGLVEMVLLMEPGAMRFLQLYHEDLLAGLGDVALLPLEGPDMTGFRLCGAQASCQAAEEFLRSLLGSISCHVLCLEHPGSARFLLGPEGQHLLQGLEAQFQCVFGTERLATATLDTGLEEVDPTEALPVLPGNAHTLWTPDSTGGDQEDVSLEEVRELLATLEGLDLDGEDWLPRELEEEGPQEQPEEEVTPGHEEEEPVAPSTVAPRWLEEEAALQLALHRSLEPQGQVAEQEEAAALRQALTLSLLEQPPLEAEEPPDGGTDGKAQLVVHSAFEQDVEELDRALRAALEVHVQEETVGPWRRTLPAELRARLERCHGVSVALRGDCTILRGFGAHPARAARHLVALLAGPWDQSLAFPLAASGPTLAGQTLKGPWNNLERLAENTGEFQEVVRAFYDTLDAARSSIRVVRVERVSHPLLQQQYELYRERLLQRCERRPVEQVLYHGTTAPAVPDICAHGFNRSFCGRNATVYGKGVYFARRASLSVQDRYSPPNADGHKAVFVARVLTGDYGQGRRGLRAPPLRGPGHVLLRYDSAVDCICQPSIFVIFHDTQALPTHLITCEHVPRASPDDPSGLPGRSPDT
UniProt Q9GZM5: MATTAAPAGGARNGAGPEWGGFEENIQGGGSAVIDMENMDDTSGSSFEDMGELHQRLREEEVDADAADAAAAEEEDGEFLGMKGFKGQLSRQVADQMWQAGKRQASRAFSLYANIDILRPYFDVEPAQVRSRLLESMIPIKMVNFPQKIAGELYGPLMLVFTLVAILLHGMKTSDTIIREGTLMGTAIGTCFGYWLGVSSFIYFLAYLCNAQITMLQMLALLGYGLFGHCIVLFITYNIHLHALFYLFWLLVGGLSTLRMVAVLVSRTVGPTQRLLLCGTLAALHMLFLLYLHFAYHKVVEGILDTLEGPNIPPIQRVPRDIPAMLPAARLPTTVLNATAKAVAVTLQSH
UniProt Q99700, whole entry: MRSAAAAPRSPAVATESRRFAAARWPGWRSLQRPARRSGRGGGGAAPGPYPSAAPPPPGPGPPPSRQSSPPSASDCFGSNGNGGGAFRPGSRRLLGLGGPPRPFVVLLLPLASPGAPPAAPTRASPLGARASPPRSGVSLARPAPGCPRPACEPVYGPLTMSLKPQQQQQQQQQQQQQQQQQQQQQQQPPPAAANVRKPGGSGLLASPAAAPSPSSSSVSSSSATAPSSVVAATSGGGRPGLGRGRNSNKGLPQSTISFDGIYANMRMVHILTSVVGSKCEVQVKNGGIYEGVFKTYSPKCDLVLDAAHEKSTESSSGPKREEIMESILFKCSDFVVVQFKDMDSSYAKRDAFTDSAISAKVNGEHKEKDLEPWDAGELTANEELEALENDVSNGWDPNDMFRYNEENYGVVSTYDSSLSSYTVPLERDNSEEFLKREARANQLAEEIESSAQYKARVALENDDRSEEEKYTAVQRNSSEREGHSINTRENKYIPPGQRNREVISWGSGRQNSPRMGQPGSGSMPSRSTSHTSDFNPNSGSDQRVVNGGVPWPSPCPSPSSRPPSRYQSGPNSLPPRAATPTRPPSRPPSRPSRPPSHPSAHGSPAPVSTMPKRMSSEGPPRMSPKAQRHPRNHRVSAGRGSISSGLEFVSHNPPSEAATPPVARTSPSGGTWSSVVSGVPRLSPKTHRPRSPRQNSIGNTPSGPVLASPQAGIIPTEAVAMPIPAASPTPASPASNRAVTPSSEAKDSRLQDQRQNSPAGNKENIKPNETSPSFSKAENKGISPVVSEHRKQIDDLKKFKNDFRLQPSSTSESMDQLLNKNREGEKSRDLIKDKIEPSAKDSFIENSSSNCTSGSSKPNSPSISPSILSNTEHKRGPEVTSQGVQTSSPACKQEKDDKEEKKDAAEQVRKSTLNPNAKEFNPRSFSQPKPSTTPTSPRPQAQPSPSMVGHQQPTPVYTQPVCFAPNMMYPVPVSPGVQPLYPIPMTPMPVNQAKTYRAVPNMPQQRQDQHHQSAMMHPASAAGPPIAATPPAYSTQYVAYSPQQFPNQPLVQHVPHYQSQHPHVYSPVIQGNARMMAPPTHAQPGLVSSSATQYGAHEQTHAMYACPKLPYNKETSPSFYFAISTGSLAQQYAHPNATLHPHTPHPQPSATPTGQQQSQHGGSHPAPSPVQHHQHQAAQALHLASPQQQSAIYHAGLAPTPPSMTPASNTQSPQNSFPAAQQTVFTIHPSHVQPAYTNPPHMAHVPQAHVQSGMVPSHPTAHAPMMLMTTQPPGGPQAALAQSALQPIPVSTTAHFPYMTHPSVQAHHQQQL
UniProt O95208: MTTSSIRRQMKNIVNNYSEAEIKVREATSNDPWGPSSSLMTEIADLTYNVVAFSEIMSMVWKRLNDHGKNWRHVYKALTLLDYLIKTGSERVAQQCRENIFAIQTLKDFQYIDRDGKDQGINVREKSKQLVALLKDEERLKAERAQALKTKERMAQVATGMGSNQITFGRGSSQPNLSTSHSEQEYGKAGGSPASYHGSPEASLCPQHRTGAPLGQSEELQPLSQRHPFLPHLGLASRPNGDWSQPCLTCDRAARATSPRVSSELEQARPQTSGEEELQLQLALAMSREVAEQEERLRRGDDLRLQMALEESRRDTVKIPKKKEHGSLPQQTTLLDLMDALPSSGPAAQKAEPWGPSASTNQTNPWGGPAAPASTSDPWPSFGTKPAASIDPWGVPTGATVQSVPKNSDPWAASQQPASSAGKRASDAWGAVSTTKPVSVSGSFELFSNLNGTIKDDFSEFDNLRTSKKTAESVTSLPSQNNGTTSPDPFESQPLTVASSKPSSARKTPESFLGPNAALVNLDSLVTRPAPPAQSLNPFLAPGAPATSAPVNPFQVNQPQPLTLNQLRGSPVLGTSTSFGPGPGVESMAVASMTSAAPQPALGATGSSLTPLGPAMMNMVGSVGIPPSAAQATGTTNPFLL
UniProt P08133: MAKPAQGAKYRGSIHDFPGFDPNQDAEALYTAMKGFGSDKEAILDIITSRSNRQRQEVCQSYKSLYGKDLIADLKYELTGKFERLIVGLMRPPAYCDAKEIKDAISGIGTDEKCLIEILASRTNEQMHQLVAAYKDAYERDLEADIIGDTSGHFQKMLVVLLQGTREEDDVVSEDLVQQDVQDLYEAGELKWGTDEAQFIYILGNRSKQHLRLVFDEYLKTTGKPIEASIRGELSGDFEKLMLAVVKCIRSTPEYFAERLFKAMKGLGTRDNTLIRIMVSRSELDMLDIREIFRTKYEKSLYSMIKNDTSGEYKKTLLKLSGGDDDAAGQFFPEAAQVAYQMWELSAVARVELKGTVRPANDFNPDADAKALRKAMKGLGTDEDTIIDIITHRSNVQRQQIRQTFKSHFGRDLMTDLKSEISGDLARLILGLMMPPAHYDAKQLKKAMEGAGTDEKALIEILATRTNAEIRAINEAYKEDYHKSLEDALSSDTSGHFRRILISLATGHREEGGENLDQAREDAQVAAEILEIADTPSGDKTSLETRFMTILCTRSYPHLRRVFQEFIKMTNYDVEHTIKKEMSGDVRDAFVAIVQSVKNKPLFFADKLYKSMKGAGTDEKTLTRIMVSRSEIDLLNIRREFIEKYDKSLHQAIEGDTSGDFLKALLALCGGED

Target | NP40-soluble protein abundance (concentration: 1mM) | NP40-soluble protein abundance (concentration: 2mM) | NP40-soluble protein abundance (concentration: 4mM) | NP40-soluble protein abundance (concentration: 6mM) | NP40-soluble protein abundance (concentration: 8mM) | NP40-soluble protein abundance (concentration: 10mM)
G3V3M6 and related entries (UniProt P27695) | 1.04 ± 0.047 | 1.13 ± 0.079 | 1.06 ± 0.02 | 1.15 ± 0.038 | 1.12 ± 0.057 | 1.16 ± 0.044
F8W7U0 and related entries (UniProt Q15811) | 1.03 ± 0.036 | 1.01 ± 0.033 | 1.01 ± 0.051 | 1.01 ± 0.028 | 0.952 ± 0.042 | 0.996 ± 0.051
E7EQ52 and related entries (UniProt O95271) | 0.956 ± 0.029 | 0.928 ± 0.08 | 0.945 ± 0.053 | 0.881 ± 0.026 | 0.8608 ± 0.0012 | 0.875 ± 0.018
E7EW84 and related entries (UniProt Q8TAG9) | 1 ± 0.039 | 0.975 ± 0.041 | 1.02 ± 0.053 | 0.957 ± 0.017 | 0.963 ± 0.016 | 0.98 ± 0.035
F8W1T6 and related entries (UniProt Q15434) | 1.01 ± 0.014 | 1.01 ± 0.037 | 1 ± 0.026 | 1.001 ± 0.0072 | 0.967 ± 0.018 | 0.992 ± 0.011
F8W057 and related entries (UniProt Q9GZN1) | 1.04 ± 0.017 | 1.04 ± 0.013 | 1.09 ± 0.052 | 1.03 ± 0.067 | 1.07 ± 0.045 | 1.06 ± 0.028
F5GWT4 and related entries (UniProt Q9H4A3) | 1.04 ± 0.044 | 1.07 ± 0.03 | 1.04 ± 0.027 | 1.03 ± 0.044 | 1.02 ± 0.039 | 1.07 ± 0.056
F8VVZ0 and related entries (UniProt P61020) | 1.03 ± 0.028 | 0.993 ± 0.013 | 1.01 ± 0.024 | 1.07 ± 0.026 | 1.08 ± 0.064 | 1.05 ± 0.018
E9PJM3 and related entries (UniProt Q9UK99) | 0.964 ± 0.03 | 0.913 ± 0.081 | 0.972 ± 0.045 | 0.964 ± 0.011 | 0.962 ± 0.03 | 0.95 ± 0.059
E9PK67 and related entries (UniProt Q53GL7) | 0.991 ± 0.027 | 0.981 ± 0.025 | 1.03 ± 0.033 | 0.989 ± 0.012 | 0.959 ± 0.027 | 0.975 ± 0.027
E9PB90 and related entries (UniProt P52789) | 0.977 ± 0.014 | 0.983 ± 0.021 | 1.02 ± 0.051 | 0.99 ± 0.024 | 0.988 ± 0.022 | 1.015 ± 0.0054
E9PC69 and related entries (UniProt Q7KZI7) | 1.11 ± 0.047 | 1.11 ± 0.05 | 1.11 ± 0.021 | 1.07 ± 0.052 | 1.11 ± 0.055 | 1.13 ± 0.029
F8VX04 and related entries (UniProt Q9H2H9) | 1.14 ± 0.1 | 1.36 ± 0.19 | 1.1 ± 0.051 | 1.06 ± 0.094 | 1.01 ± 0.087 | 1.13 ± 0.19
F6V2D4 and related entries (UniProt O00214) | 0.99 ± 0.029 | 0.978 ± 0.044 | 0.994 ± 0.02 | 1 ± 0.025 | 1.02 ± 0.015 | 1.02 ± 0.021
E7EQR8 and related entries (UniProt Q9GZM5) | 1.01 ± 0.038 | 1.03 ± 0.024 | 1 ± 0.02 | 1.02 ± 0.029 | 1.01 ± 0.018 | 1.02 ± 0.019
F8WB06 and related entries (UniProt Q99700) | 1.02 ± 0.021 | 1.12 ± 0.055 | 1.1 ± 0.028 | 1.13 ± 0.051 | 1.05 ± 0.073 | 1.16 ± 0.036
E9PBC1 and related entries (UniProt O95208) | 1.05 ± 0.034 | 1.041 ± 0.0081 | 1.02 ± 0.02 | 0.998 ± 0.052 | 0.992 ± 0.014 | 1 ± 0.021
F5H365 and related entries (UniProt Q15436) | 0.991 ± 0.025 | 0.955 ± 0.061 | 0.989 ± 0.02 | 0.974 ± 0.021 | 0.987 ± 0.053 | 0.948 ± 0.027
G3V1S4 and related entries (UniProt Q9Y324) | 1 ± 0.0086 | 0.988 ± 0.022 | 0.972 ± 0.022 | 1.01 ± 0.062 | 1.05 ± 0.046 | 1.07 ± 0.031
F5H136 and related entries (UniProt P17987) | 0.97 ± 0.059 | 0.926 ± 0.055 | 0.928 ± 0.088 | 0.937 ± 0.08 | 0.9 ± 0.049 | 0.929 ± 0.13
E9PM51 and related entries (UniProt P32780) | 1.01 ± 0.021 | 1.04 ± 0.037 | 1.044 ± 0.0094 | 1.06 ± 0.012 | 1.05 ± 0.053 | 1.03 ± 0.06
E7EXA6 and related entries (UniProt Q8WVB6) | 0.983 ± 0.021 | 0.959 ± 0.046 | 1 ± 0.033 | 1.01 ± 0.028 | 1 ± 0.035 | 1 ± 0.062
E9PEN0 and related entries (UniProt Q8WYH8) | 1.001 ± 0.0063 | 1.03 ± 0.035 | 0.9865 ± 0.0042 | 1.02 ± 0.026 | 1.03 ± 0.035 | 1.09 ± 0.07
F5GWU8 and related entries (UniProt P61224) | 1.04 ± 0.025 | 1.04 ± 0.027 | 1.02 ± 0.029 | 1 ± 0.03 | 0.986 ± 0.011 | 1.01 ± 0.038
F8W0Q9 and related entries (UniProt Q8NEY8) | 1 ± 0.012 | 1.06 ± 0.068 | 0.981 ± 0.013 | 0.999 ± 0.019 | 0.98 ± 0.015 | 1.04 ± 0.032
E5RK69 and related entries (UniProt P08133) | 0.976 ± 0.038 | 0.955 ± 0.015 | 0.947 ± 0.046 | 1.01 ± 0.06 | 1.01 ± 0.06 | 0.99 ± 0.039
E7EX17 and related entries (UniProt P23588) | 1.06 ± 0.06 | 1.14 ± 0.072 | 1.07 ± 0.031 | 1.08 ± 0.081 | 1.06 ± 0.036 | 1.11 ± 0.039
E9PBG7 and related entries (UniProt Q13557) | 0.94 ± 0.026 | 0.989 ± 0.049 | 0.903 ± 0.017 | 0.89 ± 0.054 | 0.878 ± 0.022 | 0.88 ± 0.027
E7EQ34 and related entries (UniProt O14653+E7EQ34) | 1.01 ± 0.034 | 1.08 ± 0.09 | 1.04 ± 0.033 | 1.03 ± 0.031 | 0.998 ± 0.039 | 1.08 ± 0.063
E9PS74 and related entries (UniProt Q8NBI5) | 0.992 ± 0.056 | 1.01 ± 0.035 | 0.965 ± 0.04 | 0.985 ± 0.033 | 0.994 ± 0.046 | 0.983 ± 0.0088

Record cards (already shown):
E9PEN0 and related entries (UniProt Q8WYH8) is listed with NP40-soluble protein abundance (concentration: 1mM): 1.001 ± 0.0063; NP40-soluble protein abundance (concentration: 2mM): 1.03 ± 0.035; NP40-soluble protein abundance (concentration: 4mM): 0.9865 ± 0.0042; NP40-soluble protein abundance (concentration: 6mM): 1.02 ± 0.026; NP40-soluble protein abundance (concentration: 8mM): 1.03 ± 0.035; NP40-soluble protein abundance (concentration: 10mM): 1.09 ± 0.07
E5RK69 and related entries (UniProt P08133) is listed with NP40-soluble protein abundance (concentration: 1mM): 0.976 ± 0.038; NP40-soluble protein abundance (concentration: 2mM): 0.955 ± 0.015; NP40-soluble protein abundance (concentration: 4mM): 0.947 ± 0.046; NP40-soluble protein abundance (concentration: 6mM): 1.01 ± 0.06; NP40-soluble protein abundance (concentration: 8mM): 1.01 ± 0.06; NP40-soluble protein abundance (concentration: 10mM): 0.99 ± 0.039

Reference: the supplement of paper PMC6411743
